The supplement of paper PMC12595434, “Development of retinoid nuclear receptor pathway antagonists through targeting aldehyde dehydrogenase 1A3” (iScience, 2025)
Some of the results follow. Single values of this set are uncertain.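 Many melting curves are irregular; where none melted, Tm was taken as 64 °C.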

Protein sequences, listed by entry. Tags and fused reporters are not part of them. Lines headed by an entry give the natural chain unless they say otherwise; changes in a name come on top.
UniProt Q9Y6M9, whole entry: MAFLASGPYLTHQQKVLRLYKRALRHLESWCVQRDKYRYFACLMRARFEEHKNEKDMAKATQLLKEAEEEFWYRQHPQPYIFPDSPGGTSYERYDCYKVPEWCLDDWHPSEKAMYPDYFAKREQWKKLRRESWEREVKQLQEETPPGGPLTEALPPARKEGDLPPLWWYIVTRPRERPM
UniProt Q9Y5Q8: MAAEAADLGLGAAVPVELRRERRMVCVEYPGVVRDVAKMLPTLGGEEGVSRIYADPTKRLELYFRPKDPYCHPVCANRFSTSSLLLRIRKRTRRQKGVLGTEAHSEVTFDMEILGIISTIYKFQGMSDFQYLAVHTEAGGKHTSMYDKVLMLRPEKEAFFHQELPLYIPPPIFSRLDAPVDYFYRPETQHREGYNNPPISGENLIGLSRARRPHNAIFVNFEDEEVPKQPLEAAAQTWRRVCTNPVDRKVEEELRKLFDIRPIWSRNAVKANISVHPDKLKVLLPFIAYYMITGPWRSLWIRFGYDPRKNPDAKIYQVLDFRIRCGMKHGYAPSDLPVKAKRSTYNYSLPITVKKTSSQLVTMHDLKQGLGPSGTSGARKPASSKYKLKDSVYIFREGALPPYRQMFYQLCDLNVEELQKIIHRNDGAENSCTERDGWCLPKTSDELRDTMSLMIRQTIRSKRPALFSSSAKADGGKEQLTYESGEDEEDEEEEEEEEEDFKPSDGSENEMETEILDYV
UniProt Q9Y5V3: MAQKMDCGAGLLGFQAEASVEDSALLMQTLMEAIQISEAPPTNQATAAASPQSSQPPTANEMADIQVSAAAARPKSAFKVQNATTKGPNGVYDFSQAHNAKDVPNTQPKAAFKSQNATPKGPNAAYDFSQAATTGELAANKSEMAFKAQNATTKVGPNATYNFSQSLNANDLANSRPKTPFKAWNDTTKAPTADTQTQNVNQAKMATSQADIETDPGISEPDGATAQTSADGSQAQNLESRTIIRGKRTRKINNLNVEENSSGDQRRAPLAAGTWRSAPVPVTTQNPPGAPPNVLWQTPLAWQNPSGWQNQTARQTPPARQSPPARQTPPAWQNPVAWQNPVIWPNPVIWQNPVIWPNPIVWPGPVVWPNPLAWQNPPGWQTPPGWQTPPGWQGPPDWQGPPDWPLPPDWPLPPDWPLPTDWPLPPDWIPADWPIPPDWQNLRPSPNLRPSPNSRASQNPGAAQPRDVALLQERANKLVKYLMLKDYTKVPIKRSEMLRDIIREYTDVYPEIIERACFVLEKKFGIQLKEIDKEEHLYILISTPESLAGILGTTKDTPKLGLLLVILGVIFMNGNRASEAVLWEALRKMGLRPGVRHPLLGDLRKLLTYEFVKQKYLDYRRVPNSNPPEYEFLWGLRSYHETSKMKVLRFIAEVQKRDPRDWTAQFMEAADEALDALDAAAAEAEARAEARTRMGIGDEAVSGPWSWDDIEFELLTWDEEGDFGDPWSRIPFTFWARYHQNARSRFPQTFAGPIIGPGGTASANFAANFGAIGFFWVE
UniProt Q9Y530: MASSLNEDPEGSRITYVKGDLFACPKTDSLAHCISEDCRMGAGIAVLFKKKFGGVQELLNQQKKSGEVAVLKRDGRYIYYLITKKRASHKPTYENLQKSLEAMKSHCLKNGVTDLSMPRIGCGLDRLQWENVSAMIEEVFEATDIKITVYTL
UniProt Q9Y487, whole entry: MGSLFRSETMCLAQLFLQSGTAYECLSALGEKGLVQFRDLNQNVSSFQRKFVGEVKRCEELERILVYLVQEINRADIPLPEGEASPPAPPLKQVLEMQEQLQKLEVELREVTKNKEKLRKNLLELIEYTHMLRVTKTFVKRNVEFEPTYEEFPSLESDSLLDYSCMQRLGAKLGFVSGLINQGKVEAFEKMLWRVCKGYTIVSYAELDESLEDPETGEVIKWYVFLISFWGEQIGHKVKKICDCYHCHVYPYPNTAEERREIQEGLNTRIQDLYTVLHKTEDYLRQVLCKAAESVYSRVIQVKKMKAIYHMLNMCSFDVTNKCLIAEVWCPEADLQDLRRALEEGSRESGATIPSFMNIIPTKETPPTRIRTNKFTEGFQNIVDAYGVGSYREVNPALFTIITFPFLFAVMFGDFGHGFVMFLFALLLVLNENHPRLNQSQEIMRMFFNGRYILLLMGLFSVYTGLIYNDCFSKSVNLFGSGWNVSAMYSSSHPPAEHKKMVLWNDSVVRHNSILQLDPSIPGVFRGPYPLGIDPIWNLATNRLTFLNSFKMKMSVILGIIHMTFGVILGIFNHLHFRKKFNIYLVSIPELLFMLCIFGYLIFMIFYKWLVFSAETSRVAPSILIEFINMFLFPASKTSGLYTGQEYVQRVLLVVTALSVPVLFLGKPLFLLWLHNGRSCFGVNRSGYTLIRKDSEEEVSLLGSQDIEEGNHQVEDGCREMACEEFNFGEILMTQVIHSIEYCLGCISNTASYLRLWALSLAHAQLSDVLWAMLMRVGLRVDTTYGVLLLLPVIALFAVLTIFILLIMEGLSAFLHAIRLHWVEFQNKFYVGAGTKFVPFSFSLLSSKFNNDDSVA
UniProt Q9Y4Y9: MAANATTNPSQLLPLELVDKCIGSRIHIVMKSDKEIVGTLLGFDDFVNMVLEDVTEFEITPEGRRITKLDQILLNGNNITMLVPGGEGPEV
UniProt Q9Y4B6: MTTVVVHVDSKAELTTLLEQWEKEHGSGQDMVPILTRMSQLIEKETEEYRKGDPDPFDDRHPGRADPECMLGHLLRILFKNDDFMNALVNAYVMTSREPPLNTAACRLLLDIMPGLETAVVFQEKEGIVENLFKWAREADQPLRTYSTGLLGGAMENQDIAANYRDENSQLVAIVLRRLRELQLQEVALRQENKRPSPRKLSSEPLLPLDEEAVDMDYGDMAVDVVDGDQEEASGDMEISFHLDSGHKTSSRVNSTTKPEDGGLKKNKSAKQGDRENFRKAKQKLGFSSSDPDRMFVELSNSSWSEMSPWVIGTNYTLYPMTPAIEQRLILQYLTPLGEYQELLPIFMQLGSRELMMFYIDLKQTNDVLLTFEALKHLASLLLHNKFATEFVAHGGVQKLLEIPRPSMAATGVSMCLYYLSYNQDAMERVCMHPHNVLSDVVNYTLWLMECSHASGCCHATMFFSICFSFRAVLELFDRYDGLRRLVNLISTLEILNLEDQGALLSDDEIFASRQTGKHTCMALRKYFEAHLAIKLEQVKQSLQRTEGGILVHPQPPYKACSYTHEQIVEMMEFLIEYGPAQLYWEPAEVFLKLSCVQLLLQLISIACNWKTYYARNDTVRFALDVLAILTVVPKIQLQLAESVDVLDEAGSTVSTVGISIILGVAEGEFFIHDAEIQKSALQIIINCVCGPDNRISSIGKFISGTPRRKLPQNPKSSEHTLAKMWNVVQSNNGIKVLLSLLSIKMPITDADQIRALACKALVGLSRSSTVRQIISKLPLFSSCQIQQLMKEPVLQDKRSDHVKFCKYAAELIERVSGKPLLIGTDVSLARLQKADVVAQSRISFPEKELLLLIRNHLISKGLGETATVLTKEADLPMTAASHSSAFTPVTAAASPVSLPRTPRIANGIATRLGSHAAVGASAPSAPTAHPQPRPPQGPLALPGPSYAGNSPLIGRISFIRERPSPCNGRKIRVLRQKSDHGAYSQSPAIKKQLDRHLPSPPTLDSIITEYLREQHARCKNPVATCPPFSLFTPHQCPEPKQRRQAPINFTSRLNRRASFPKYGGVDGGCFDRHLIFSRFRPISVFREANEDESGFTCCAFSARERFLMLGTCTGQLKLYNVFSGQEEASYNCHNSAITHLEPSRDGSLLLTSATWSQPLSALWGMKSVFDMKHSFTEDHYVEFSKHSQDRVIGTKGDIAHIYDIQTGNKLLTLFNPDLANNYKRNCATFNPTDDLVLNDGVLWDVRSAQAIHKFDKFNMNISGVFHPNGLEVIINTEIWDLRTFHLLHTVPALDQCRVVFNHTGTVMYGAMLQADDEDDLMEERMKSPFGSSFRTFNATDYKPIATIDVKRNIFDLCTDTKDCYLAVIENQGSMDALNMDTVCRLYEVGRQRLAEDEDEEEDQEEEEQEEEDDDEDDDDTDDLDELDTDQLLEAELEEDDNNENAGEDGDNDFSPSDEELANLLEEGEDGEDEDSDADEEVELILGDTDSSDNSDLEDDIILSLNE
UniProt Q9Y4K4: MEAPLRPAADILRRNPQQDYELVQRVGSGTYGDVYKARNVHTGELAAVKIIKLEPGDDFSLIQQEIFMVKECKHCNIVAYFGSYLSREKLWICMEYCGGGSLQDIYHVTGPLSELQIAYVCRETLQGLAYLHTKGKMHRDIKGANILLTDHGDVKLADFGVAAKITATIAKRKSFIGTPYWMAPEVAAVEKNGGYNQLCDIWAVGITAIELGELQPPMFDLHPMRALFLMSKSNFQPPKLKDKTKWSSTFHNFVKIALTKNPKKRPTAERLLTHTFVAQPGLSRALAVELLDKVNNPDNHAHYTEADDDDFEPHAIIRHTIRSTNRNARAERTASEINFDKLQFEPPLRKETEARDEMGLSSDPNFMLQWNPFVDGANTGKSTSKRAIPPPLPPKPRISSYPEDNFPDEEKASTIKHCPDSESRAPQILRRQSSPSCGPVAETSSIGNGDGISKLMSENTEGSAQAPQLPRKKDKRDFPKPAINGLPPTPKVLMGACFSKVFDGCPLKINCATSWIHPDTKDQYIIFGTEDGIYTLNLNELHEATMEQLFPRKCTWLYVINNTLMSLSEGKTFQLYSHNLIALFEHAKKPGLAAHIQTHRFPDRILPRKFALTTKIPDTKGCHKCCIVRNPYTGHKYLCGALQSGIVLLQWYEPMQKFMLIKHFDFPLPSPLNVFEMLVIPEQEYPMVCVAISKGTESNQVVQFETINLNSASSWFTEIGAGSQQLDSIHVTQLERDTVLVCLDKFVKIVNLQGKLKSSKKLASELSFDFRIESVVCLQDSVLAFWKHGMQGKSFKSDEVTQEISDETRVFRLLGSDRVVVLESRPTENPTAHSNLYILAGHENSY
UniProt Q9Y5N5: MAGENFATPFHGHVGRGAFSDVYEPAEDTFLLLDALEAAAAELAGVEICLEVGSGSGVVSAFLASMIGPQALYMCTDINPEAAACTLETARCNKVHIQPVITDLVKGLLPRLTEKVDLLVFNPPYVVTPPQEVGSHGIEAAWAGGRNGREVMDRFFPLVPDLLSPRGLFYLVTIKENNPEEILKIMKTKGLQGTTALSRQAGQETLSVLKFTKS
UniProt Q9Y448: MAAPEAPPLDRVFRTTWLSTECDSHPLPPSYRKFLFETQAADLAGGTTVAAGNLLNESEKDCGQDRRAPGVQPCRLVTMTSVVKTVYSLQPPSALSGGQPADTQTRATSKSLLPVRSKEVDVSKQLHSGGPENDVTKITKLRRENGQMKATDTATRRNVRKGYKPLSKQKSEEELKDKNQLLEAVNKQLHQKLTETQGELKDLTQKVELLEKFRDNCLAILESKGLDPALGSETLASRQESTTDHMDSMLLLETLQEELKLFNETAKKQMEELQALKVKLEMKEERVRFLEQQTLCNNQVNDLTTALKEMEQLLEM
UniProt Q9Y2S2: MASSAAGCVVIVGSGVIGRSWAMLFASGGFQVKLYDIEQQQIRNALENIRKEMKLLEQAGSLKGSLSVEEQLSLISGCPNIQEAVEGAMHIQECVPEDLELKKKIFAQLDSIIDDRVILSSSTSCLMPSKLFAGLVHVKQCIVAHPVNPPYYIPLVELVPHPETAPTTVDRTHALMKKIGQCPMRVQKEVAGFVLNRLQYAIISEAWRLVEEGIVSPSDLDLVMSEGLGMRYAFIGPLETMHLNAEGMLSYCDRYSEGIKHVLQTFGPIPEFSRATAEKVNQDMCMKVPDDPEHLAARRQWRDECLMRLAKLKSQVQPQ
UniProt Q9Y5J6: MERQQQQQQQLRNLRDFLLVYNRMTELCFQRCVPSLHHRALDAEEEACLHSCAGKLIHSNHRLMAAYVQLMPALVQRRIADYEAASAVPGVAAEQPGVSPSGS
UniProt Q9Y3E2: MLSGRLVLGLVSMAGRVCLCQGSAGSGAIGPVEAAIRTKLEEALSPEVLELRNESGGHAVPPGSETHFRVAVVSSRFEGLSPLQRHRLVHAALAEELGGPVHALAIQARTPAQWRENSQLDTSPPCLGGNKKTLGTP
UniProt Q9Y3B4: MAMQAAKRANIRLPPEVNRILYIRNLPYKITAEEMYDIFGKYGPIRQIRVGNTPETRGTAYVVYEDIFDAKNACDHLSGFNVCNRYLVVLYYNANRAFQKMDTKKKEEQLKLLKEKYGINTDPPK
UniProt Q9Y6N5: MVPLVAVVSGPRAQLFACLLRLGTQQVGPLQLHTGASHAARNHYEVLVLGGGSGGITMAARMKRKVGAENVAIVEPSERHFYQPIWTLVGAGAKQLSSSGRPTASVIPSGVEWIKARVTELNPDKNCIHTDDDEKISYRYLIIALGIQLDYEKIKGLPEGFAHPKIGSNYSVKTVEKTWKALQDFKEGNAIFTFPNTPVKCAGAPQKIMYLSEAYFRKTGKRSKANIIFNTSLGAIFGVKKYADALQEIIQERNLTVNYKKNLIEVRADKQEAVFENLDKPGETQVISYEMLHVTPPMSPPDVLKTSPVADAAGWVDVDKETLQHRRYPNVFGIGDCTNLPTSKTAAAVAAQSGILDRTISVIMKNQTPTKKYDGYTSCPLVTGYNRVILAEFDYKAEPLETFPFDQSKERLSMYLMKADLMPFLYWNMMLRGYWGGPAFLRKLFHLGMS

Compound: CCc1cnccc1C(=O)Nc1cc2c(cc1F)NC(=O)CC2
Experiment: melting temperature shift (DMSO Tm minus MBE1-treated Tm) in cellular thermal proteome profiling; higher = less thermal stabilization by MBE1 (negative = stabilized by MBE1)
Details: A375

Target | melting temperature shift (MBE1 concentration: 100 nM) [°C] | melting temperature shift (MBE1 concentration: 1 uM) [°C]
OAS3 (UniProt Q9Y6K5) | -0.475 | -0.364
PRKAB1 (UniProt Q9Y478) | -0.219 | 0.696
IKBKG (UniProt Q9Y6K9) | -2.03 | -0.574
SRPRB (UniProt Q9Y5M8) | 0.501 | 0.372
DOPEY2 (UniProt Q9Y3R5) | – | 1.21
TBL2 (UniProt Q9Y4P3) | -0.482 | -0.464
UFC1 (UniProt Q9Y3C8) | -1.1 | -1.19
PRRC2C (UniProt Q9Y520) | – | -2.95
ARL2BP (UniProt Q9Y2Y0) | 0.724 | -0.226
NCOR2 (UniProt Q9Y618) | -2.82 | -3.73
ROBO1 (UniProt Q9Y6N7) | – | -2.51
UniProt Q9Y2K5 | -0.952 | 0.813
R3HCC1 (UniProt Q9Y3T6) | -0.159 | 0.244
NDUFB9 (UniProt Q9Y6M9) | -1.42 | 0.335
UTP18 (UniProt Q9Y5J1) | 0.409 | 0.183
CTDP1 (UniProt Q9Y5B0) | -0.243 | -0.16
PEX16 (UniProt Q9Y5Y5) | 1.43 | 1.68
TEX264 (UniProt Q9Y6I9) | 1.24 | 0.495
GTF3C5 (UniProt Q9Y5Q8) | -0.122 | -0.397
CFAP20 (UniProt Q9Y6A4) | -1.17 | 0.0855
ORC6 (UniProt Q9Y5N6) | -1.61 | -0.641

Target | melting temperature shift (MBE1 concentration: 100 nM) [°C] | melting temperature shift (MBE1 concentration: 1 uM) [°C]
RPL36 (UniProt Q9Y3U8) | -0.478 | 2.32
UniProt Q9Y5V3 | -2.12 | -0.237
SLC30A1 (UniProt Q9Y6M5) | – | -2.35
OARD1 (UniProt Q9Y530) | -0.381 | -0.837
FAM32A (UniProt Q9Y421) | – | 2.19
ATP6V0A2 (UniProt Q9Y487) | -1.33 | -0.752
IGF2BP2 (UniProt Q9Y6M1) | -1 | 0
NFS1 (UniProt Q9Y697) | -0.577 | 0.0201
TRRAP (UniProt Q9Y4A5) | -1.45 | -0.572
TMED7 (UniProt Q9Y3B3) | -0.806 | -0.415
PKP3 (UniProt Q9Y446) | -0.628 | -0.899
THRAP3 (UniProt Q9Y2W1) | -1.02 | -1.2
AP3M1 (UniProt Q9Y2T2) | 1.37 | 0.385
MRPS2 (UniProt Q9Y399) | -0.179 | 0.376
CLIC4 (UniProt Q9Y696) | -0.569 | 0.409
LSM5 (UniProt Q9Y4Y9) | – | -3.39
VPRBP (UniProt Q9Y4B6) | 1 | 0.647
CHCHD2 (UniProt Q9Y6H1) | -0.644 | -1.08
MAP4K5 (UniProt Q9Y4K4) | 1.04 | 0.598
UniProt Q9Y2U9 | -0.593 | -0.146
UniProt Q9Y5N5 | -0.288 | 0.834

Target | melting temperature shift (MBE1 concentration: 100 nM) [°C] | melting temperature shift (MBE1 concentration: 1 uM) [°C]
RAPGEF2 (UniProt Q9Y4G8) | 4.67 | 4.07
ALG6 (UniProt Q9Y672) | 0.704 | 0.891
ARFGEF2 (UniProt Q9Y6D5) | 0.495 | -0.672
KNSTRN (UniProt Q9Y448) | -1.4 | -0.153
UniProt Q9Y5Z7 | 1.47 | 2.01
UniProt Q9Y3E1 | -6.03 | -2.84
UniProt Q9Y2S2 | 0.629 | 0.434
UniProt Q9Y5J6 | -4.51 | 1.59
TLN1 (UniProt Q9Y490) | 0.513 | -0.183
WBP11 (UniProt Q9Y2W2) | -1.83 | -2.35
MTCL1 (UniProt Q9Y4B5) | -5.61 | -5.32
UniProt Q9Y3E2 | -0.59 | 1.69
RAD54L2 (UniProt Q9Y4B4) | -2.63 | -1.86
SF3B6 (UniProt Q9Y3B4) | 0.977 | 0.824
UniProt Q9Y3C7 | -0.476 | 2.92
TACC3 (UniProt Q9Y6A5) | -2.41 | 0.181
LEMD3 (UniProt Q9Y2U8) | -0.861 | -0.247
SQRDL (UniProt Q9Y6N5) | -3.32 | 1.66
TSSC4 (UniProt Q9Y5U2) | 0.653 | 1.03

5 neighbouring entries out of the list so far, quoted:
Target | melting temperature shift (MBE1 concentration: 100 nM) [°C] | melting temperature shift (MBE1 concentration: 1 uM) [°C]
MTCL1 (UniProt Q9Y4B5) | -5.61 | -5.32
UniProt Q9Y3E2 | -0.59 | 1.69
RAD54L2 (UniProt Q9Y4B4) | -2.63 | -1.86
SF3B6 (UniProt Q9Y3B4) | 0.977 | 0.824
UniProt Q9Y3C7 | -0.476 | 2.92
